Laboratory results from paper PMC8740778, “Translational Pharmacokinetic–Pharmacodynamic Modeling of NaV1.7 Inhibitor MK-2075 to Inform Human Efficacious Dose” (Frontiers in Pharmacology, 2021).

Tested on: BALB/c male mice
Experiment: Mouse tail flick latency
Type: in vivo
Settings: total plasma concentration, sigmoidal Emax model, SC dosing, read-out: Mouse tail flick EC50, mean ± SE

**Q.** For `COc1cccc(C2(O)CCCCC2CN(C)C)c1` (stereo not shown) [Tramadol], which EC50 is on record?
**A.** The EC50 was 1130 ± 80 nM.
